Results taken from article doi:10.1101/2020.04.17.046268.
These are yes or no findings as the source states them, for the method shown. Binding seen in cells or lysates may run through a third protein. Here binding means that the protein was enriched with, or labelled near, the bait; the list need not be complete.

Chains of the proteins cited; added tags and fusions are not shown.
UniProt O75362: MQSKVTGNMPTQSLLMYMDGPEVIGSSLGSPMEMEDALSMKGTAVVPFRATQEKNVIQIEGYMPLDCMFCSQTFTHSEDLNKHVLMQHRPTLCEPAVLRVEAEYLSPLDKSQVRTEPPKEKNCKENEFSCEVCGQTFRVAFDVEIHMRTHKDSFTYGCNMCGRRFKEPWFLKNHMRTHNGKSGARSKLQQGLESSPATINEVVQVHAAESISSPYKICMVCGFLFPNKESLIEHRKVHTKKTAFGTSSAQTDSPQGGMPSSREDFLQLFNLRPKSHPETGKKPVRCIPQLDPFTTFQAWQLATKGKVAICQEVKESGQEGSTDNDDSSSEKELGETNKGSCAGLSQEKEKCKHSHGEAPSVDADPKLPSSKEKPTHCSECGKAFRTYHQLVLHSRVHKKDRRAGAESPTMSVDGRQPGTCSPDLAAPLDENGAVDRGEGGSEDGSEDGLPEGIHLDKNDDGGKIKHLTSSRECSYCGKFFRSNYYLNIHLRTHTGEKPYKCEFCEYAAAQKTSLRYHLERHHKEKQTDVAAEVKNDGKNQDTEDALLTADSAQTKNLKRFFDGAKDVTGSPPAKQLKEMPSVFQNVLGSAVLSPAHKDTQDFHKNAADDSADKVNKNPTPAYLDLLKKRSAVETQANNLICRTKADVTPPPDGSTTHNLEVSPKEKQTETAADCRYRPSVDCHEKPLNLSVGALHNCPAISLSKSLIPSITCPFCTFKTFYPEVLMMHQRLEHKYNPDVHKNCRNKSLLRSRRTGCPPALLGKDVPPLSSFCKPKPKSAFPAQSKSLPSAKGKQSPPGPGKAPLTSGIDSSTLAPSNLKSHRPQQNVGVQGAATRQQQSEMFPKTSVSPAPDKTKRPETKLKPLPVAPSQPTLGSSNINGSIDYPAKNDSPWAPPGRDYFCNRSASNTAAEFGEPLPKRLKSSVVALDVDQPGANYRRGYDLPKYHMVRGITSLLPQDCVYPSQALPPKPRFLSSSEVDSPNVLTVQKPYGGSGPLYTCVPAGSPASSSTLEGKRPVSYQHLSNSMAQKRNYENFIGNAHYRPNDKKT

Target: CTBP2 (C-terminal binding protein 2) (human (endogenous in BTSC lines, SNB19, LN229)) (UniProt P56545)
Assay: affinity purification with mass spectrometry

“HDAC2 (histone deacetylase 2) (from UniProt Q92769 1-488) (enzyme)” was tested, and the binding was “binds”.

In the case of ZNF217 (from UniProt O75362 1-1048), the binding is reported as “binds”.
